# The list shows a part of the results.
# How the values were obtained:
# Test in all cases: glycan array binding signal (z-score within array); higher = stronger binding
# Settings in all cases: glycan notation: IUPAC condensed, linker removed
# [1] = biological target: Gal(b1-4)Glc
# Summary of the method: (§1)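 Arrays were curated from the Consortium for Functional Glycomics database, 3228 in total, and kept only where the protein sequence was available. Binding is expressed as a within-array Z-score. This score was averaged across arrays of the same protein sequence at different concentrations or buffers and across linkers, and negative values can be read as non-binding.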
# [2] = biological target: Gal(b1-4)Glc6S
# Summary of the method: as §1
# [3] = biological target: Gal(b1-4)GlcNAc
# Summary of the method: as §1
# [4] = biological target: Gal(b1-4)GlcNAc(a1-6)Gal(b1-4)GlcNAc
# Summary of the method: as §1
# [5] = biological target: Gal(b1-4)GlcNAc(b1-2)Man
# Summary of the method: as §1
# [6] = biological target: Gal(b1-4)GlcNAc(b1-2)Man(a1-3)Man(b1-4)GlcNAc(b1-4)GlcNAc
# Summary of the method: as §1
# [7] = biological target: Gal(b1-4)GlcNAc(b1-2)Man(a1-3)[Gal(b1-4)GlcNAc(b1-2)Man(a1-6)]Man(b1-4)GlcNAc(b1-4)GlcNAc
# Summary of the method: as §1
# [8] = biological target: Gal(b1-4)GlcNAc(b1-2)Man(a1-3)[Gal(b1-4)GlcNAc(b1-2)Man(a1-6)]Man(b1-4)GlcNAc(b1-4)[Fuc(a1-6)]GlcNAc
# Summary of the method: as §1
# [9] = biological target: Gal(b1-4)GlcNAc(b1-2)Man(a1-3)[Gal(b1-4)GlcNAc(b1-2)Man(a1-6)][Gal(b1-4)GlcNAc(b1-4)]Man(b1-4)GlcNAc(b1-4)[Fuc(a1-6)]GlcNAc
# Summary of the method: as §1
# [10] = biological target: Gal(b1-4)GlcNAc(b1-2)Man(a1-3)[Gal(b1-4)GlcNAc(b1-2)Man(a1-6)][GlcNAc(b1-4)]Man(b1-4)GlcNAc(b1-4)[Fuc(a1-6)]GlcNAc
# Summary of the method: as §1
# [11] = biological target: Gal(b1-4)GlcNAc(b1-2)Man(a1-3)[GlcNAc(b1-2)Man(a1-6)]Man(b1-4)GlcNAc(b1-4)GlcNAc
# Summary of the method: as §1
# [12] = biological target: Gal(b1-4)GlcNAc(b1-2)Man(a1-3)[GlcNAc(b1-4)][Gal(b1-4)GlcNAc(b1-2)Man(a1-6)]Man(b1-4)GlcNAc(b1-4)GlcNAc
# Summary of the method: as §1
# [13] = biological target: Gal(b1-4)GlcNAc(b1-2)Man(a1-3)[Man(a1-6)]Man(b1-4)GlcNAc(b1-4)GlcNAc
# Summary of the method: as §1
# [14] = biological target: Gal(b1-4)GlcNAc(b1-2)Man(a1-6)Man(b1-4)GlcNAc(b1-4)GlcNAc
# Summary of the method: as §1
# [15] = biological target: Gal(b1-4)GlcNAc(b1-2)Man(a1-6)[GlcNAc(b1-2)Man(a1-3)]Man(b1-4)GlcNAc(b1-4)GlcNAc
# Summary of the method: as §1
# [16] = biological target: Gal(b1-4)GlcNAc(b1-2)Man(a1-6)[Man(a1-3)]Man(b1-4)GlcNAc(b1-4)GlcNAc
# Summary of the method: as §1
# [17] = biological target: Gal(b1-4)GlcNAc(b1-2)[Gal(b1-4)GlcNAc(b1-4)]Man(a1-3)[Gal(b1-4)GlcNAc(b1-2)Man(a1-6)]Man(b1-4)GlcNAc(b1-4)GlcNAc
# Summary of the method: as §1
# [18] = biological target: Gal(b1-4)GlcNAc(b1-2)[Gal(b1-4)GlcNAc(b1-4)]Man(a1-3)[Gal(b1-4)GlcNAc(b1-2)[Gal(b1-4)GlcNAc(b1-6)]Man(a1-6)]Man(b1-4)GlcNAc(b1-4)GlcNAc
# Summary of the method: as §1
# [19] = biological target: Gal(b1-4)GlcNAc(b1-2)[Gal(b1-4)GlcNAc(b1-4)]Man(a1-3)[GlcNAc(b1-4)][Gal(b1-4)GlcNAc(b1-2)Man(a1-6)]Man(b1-4)GlcNAc(b1-4)GlcNAc
# Summary of the method: as §1
# [20] = biological target: Gal(b1-4)GlcNAc(b1-2)[Gal(b1-4)GlcNAc(b1-4)]Man(a1-3)[GlcNAc(b1-4)][Gal(b1-4)GlcNAc(b1-2)[Gal(b1-4)GlcNAc(b1-6)]Man(a1-6)]Man(b1-4)GlcNAc(b1-4)GlcNAc
# Summary of the method: as §1
# [21] = biological target: Gal(b1-4)GlcNAc(b1-2)[Gal(b1-4)GlcNAc(b1-6)]Man(a1-6)[Gal(b1-4)GlcNAc(b1-2)Man(a1-3)]Man(b1-4)GlcNAc(b1-4)GlcNAc
# Summary of the method: as §1
# [22] = biological target: Gal(b1-4)GlcNAc(b1-2)[Gal(b1-4)GlcNAc(b1-6)]Man(a1-6)[Gal(b1-4)GlcNAc(b1-2)Man(a1-3)]Man(b1-4)GlcNAc(b1-4)[Fuc(a1-6)]GlcNAc
# Summary of the method: as §1
# [23] = biological target: Gal(b1-4)GlcNAc(b1-2)[Gal(b1-4)GlcNAc(b1-6)]Man(a1-6)[GlcNAc(b1-4)][Gal(b1-4)GlcNAc(b1-2)Man(a1-3)]Man(b1-4)GlcNAc(b1-4)GlcNAc
# Summary of the method: as §1
# [24] = biological target: Gal(b1-4)GlcNAc(b1-2)[Gal(b1-4)GlcNAc(b1-6)]Man(a1-6)[GlcNAc(b1-4)][Gal(b1-4)GlcNAc(b1-2)[Gal(b1-4)GlcNAc(b1-4)]Man(a1-3)]Man(b1-4)GlcNAc(b1-4)[Fuc(a1-6)]GlcNAc
# Summary of the method: as §1
# [25] = biological target: Gal(b1-4)GlcNAc(b1-3)Gal(b1-3)GalNAc
# Summary of the method: as §1
# [26] = biological target: Gal(b1-4)GlcNAc(b1-3)Gal(b1-3)GlcNAc
# Summary of the method: as §1
# [27] = biological target: Gal(b1-4)GlcNAc(b1-3)Gal(b1-4)Glc
# Summary of the method: as §1
# [28] = biological target: Gal(b1-4)GlcNAc(b1-3)Gal(b1-4)GlcNAc
# Summary of the method: as §1
# [29] = biological target: Gal(b1-4)GlcNAc(b1-3)Gal(b1-4)GlcNAc(b1-2)Man(a1-3)[Gal(b1-4)GlcNAc(b1-3)Gal(b1-4)GlcNAc(b1-2)Man(a1-6)]Man(b1-4)GlcNAc(b1-4)GlcNAc
# Summary of the method: as §1
# [30] = biological target: Gal(b1-4)GlcNAc(b1-3)Gal(b1-4)GlcNAc(b1-2)Man(a1-3)[Gal(b1-4)GlcNAc(b1-3)Gal(b1-4)GlcNAc(b1-2)Man(a1-6)]Man(b1-4)GlcNAc(b1-4)[Fuc(a1-6)]GlcNAc
# Summary of the method: as §1
# [31] = biological target: Gal(b1-4)GlcNAc(b1-3)Gal(b1-4)GlcNAc(b1-2)[Gal(b1-4)GlcNAc(b1-3)Gal(b1-4)GlcNAc(b1-6)]Man(a1-6)[Gal(b1-4)GlcNAc(b1-3)Gal(b1-4)GlcNAc(b1-2)Man(a1-3)]Man(b1-4)GlcNAc(b1-4)GlcNAc
# Summary of the method: as §1
# [32] = biological target: Gal(b1-4)GlcNAc(b1-3)Gal(b1-4)GlcNAc(b1-2)[Gal(b1-4)GlcNAc(b1-3)Gal(b1-4)GlcNAc(b1-6)]Man(a1-6)[Gal(b1-4)GlcNAc(b1-3)Gal(b1-4)GlcNAc(b1-2)Man(a1-3)]Man(b1-4)GlcNAc(b1-4)[Fuc(a1-6)]GlcNAc
# Summary of the method: as §1
# [33] = biological target: Gal(b1-4)GlcNAc(b1-3)Gal(b1-4)GlcNAc(b1-3)Gal(b1-4)GlcNAc
# Summary of the method: as §1
# [34] = biological target: Gal(b1-4)GlcNAc(b1-3)Gal(b1-4)GlcNAc(b1-3)Gal(b1-4)GlcNAc(b1-2)Man(a1-3)[Gal(b1-4)GlcNAc(b1-3)Gal(b1-4)GlcNAc(b1-3)Gal(b1-4)GlcNAc(b1-2)Man(a1-6)]Man(b1-4)GlcNAc(b1-4)GlcNAc
# Summary of the method: as §1
# [35] = biological target: Gal(b1-4)GlcNAc(b1-3)Gal(b1-4)GlcNAc(b1-3)Gal(b1-4)GlcNAc(b1-2)Man(a1-3)[Gal(b1-4)GlcNAc(b1-3)Gal(b1-4)GlcNAc(b1-3)Gal(b1-4)GlcNAc(b1-2)Man(a1-6)]Man(b1-4)GlcNAc(b1-4)[Fuc(a1-6)]GlcNAc
# Summary of the method: as §1
# [36] = biological target: Gal(b1-4)GlcNAc(b1-3)Gal(b1-4)GlcNAc(b1-3)Gal(b1-4)GlcNAc(b1-2)[Gal(b1-4)GlcNAc(b1-3)Gal(b1-4)GlcNAc(b1-3)Gal(b1-4)GlcNAc(b1-6)]Man(a1-6)[Gal(b1-4)GlcNAc(b1-3)Gal(b1-4)GlcNAc(b1-3)Gal(b1-4)GlcNAc(b1-2)Man(a1-3)]Man(b1-4)GlcNAc(b1-4)[Fuc(a1-6)]GlcNAc
# Summary of the method: as §1
# [37] = biological target: Gal(b1-4)GlcNAc(b1-3)Gal(b1-4)GlcNAc(b1-3)Gal(b1-4)GlcNAc(b1-3)Gal(b1-4)GlcNAc(b1-2)Man(a1-3)[Gal(b1-4)GlcNAc(b1-3)Gal(b1-4)GlcNAc(b1-3)Gal(b1-4)GlcNAc(b1-3)Gal(b1-4)GlcNAc(b1-2)Man(a1-6)]Man(b1-4)GlcNAc(b1-4)GlcNAc
# Summary of the method: as §1
binder,measurement,setting,value
"SfaEH (Escherichia coli), Q1RDG5 (protein) LLCRNNQTGQVFNSGDTSFRVNVSPVVQYDKSISVLDLSQLVSCQNEDSTGQNYDYLKILKGSGFSPALDTKTYGRLDFTSRPTGYARQLPLQFDLQVTEAFYQYGVWKPFPAKLYLYPAPGVFGKVINNGDLLATLYVNKFSTKGQEAGERNFTWRFYATNDVYIQTGTCRVSSNNVKVDLPSYPGGPVTVPLTVRCDQTQSVSYTLSGPVTGSGNTVFANTAASGSGGVGIQLSDNVGPVPAGQPRSLGQVGSSPVSLGLKASYALTGQASPTPGAVQSVINVTFSYN",glycan array binding signal (z-score),[1],-0.376
same,glycan array binding signal (z-score),[2],0.117
same,glycan array binding signal (z-score),[3],-0.108
same,glycan array binding signal (z-score),[4],-0.177
same,glycan array binding signal (z-score),[5],-0.666
same,glycan array binding signal (z-score),[6],-0.607
same,glycan array binding signal (z-score),[7],0.902
same,glycan array binding signal (z-score),[8],0.956
same,glycan array binding signal (z-score),[9],-0.358
same,glycan array binding signal (z-score),[10],-0.692
same,glycan array binding signal (z-score),[11],-0.661
same,glycan array binding signal (z-score),[12],-0.421
same,glycan array binding signal (z-score),[13],-0.294
same,glycan array binding signal (z-score),[14],-0.268
same,glycan array binding signal (z-score),[15],-0.795
same,glycan array binding signal (z-score),[16],-0.22
same,glycan array binding signal (z-score),[17],1.8
same,glycan array binding signal (z-score),[18],0.046
same,glycan array binding signal (z-score),[19],0.346
same,glycan array binding signal (z-score),[20],1.56
same,glycan array binding signal (z-score),[21],-0.54
same,glycan array binding signal (z-score),[22],-0.781
same,glycan array binding signal (z-score),[23],0.119
same,glycan array binding signal (z-score),[24],-0.371
same,glycan array binding signal (z-score),[25],-0.702
same,glycan array binding signal (z-score),[26],0.732
same,glycan array binding signal (z-score),[27],0.024
same,glycan array binding signal (z-score),[28],-0.049
same,glycan array binding signal (z-score),[29],0.118
same,glycan array binding signal (z-score),[30],-0.002
same,glycan array binding signal (z-score),[31],-0.246
same,glycan array binding signal (z-score),[32],0.724
same,glycan array binding signal (z-score),[33],0.382
same,glycan array binding signal (z-score),[34],1.06
same,glycan array binding signal (z-score),[35],0.461
same,glycan array binding signal (z-score),[36],1.36
same,glycan array binding signal (z-score),[37],0.992

# Two records picked at random from those above, as already listed:
binder,measurement,setting,value
"SfaEH (Escherichia coli), Q1RDG5 (protein) LLCRNNQTGQVFNSGDTSFRVNVSPVVQYDKSISVLDLSQLVSCQNEDSTGQNYDYLKILKGSGFSPALDTKTYGRLDFTSRPTGYARQLPLQFDLQVTEAFYQYGVWKPFPAKLYLYPAPGVFGKVINNGDLLATLYVNKFSTKGQEAGERNFTWRFYATNDVYIQTGTCRVSSNNVKVDLPSYPGGPVTVPLTVRCDQTQSVSYTLSGPVTGSGNTVFANTAASGSGGVGIQLSDNVGPVPAGQPRSLGQVGSSPVSLGLKASYALTGQASPTPGAVQSVINVTFSYN",glycan array binding signal (z-score),[32],0.724
same,glycan array binding signal (z-score),[4],-0.177

# — the supplement of paper PMC8728848
